Results are given in words; binding and its absence hold for the method and conditions named. In cells and extracts the contact can be indirect. These calls come from enrichment with a bait or labelling near it, and not all partners need be listed. Where a sequence is shown, tags or fusion partners need not be part of it.
Molecular target: T1, EGFP-rACBD5 (acyl-coenzyme A-binding domain protein 5) (UniProt A0FKI7)
T1 sequence: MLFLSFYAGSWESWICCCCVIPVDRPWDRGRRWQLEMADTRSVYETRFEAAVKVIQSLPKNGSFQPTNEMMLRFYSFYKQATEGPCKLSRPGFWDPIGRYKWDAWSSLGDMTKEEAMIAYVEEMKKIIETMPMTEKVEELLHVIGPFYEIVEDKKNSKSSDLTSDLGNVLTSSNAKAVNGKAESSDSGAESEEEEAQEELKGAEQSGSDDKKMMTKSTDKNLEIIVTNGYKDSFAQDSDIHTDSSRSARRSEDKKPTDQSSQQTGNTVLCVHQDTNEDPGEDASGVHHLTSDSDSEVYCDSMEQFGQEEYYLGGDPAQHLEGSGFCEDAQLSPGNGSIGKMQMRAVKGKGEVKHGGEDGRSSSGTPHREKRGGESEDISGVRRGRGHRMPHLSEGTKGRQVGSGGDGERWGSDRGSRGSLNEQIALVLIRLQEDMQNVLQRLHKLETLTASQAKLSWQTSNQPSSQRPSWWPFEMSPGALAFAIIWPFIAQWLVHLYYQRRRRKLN
Experiment: affinity purification with mass spectrometry; GFP-TRAP agarose beads with lysates of HepG2 cells expressing EGFP-rACBD5 (EGFP-only vector as control), 1% NP-40, overnight at 4°C, washes with 1 M NaCl; three experiments, label-free peptide counting

The chains behind the UniProt entries cited, without tags or fusion partners.
UniProt O95292: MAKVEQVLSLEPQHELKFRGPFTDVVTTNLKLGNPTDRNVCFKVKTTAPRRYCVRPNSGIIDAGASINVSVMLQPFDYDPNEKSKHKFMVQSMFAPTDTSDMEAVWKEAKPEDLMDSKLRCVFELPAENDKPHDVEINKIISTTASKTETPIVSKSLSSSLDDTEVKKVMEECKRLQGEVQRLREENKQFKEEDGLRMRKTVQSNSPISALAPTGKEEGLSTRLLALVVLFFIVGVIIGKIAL

binding: binds
Substance: vesicle-associated membrane protein-associated protein B (VAPB), endogenous (from UniProt O95292 1-243)

Source: paper PMC5294785
